Source: the supplement of paper PMC7661543
Differences between knockout arms are mostly noise.

Tested on: BT-20
Assay: relative cell number vs DMSO control (72 h) (% of DMSO); higher = less growth inhibition (more cells)
Procedure: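 QMAP-Seq: a pool of 5 breast cancer cell lines (ZR-75-1, SKBR3, HCC-38, MDA-MB-231, BT-20), each carrying 12 doxycycline-inducible Cas9 sgRNA perturbations (11 knockouts plus non-targeting sgNT), was treated with compounds for 72 h at four 10-fold doses (10 nM-10 uM or 1 nM-1 uM range). Barcodes were amplified and sequenced, and cell number was interpolated from 293T spike-in standard curves. The result is expressed as % of the median of DMSO wells. Two biological replicates.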

CCOc1ccccc1-n1c(C(C)N2CCN(C(=O)COc3ccc(Cl)cc3)CC2)nc2ccccc2c1=O (configuration not stated) [Erastin]
Details | relative cell number
sgRNA knockout: sgATF3, 10 nM | 94.9
sgRNA knockout: sgATF3, 100 nM | 93.5
sgRNA knockout: sgATF3, 1000 nM | 86.3
sgRNA knockout: sgATF3, 10000 nM | 51
sgRNA knockout: sgATF4, 10 nM | 89.4
sgRNA knockout: sgATF4, 100 nM | 96.52
sgRNA knockout: sgATF4, 1000 nM | 83.7
sgRNA knockout: sgATF4, 10000 nM | 54.4
sgRNA knockout: sgATF6, 10 nM | 89
sgRNA knockout: sgATF6, 100 nM | 97.5
sgRNA knockout: sgATF6, 1000 nM | 87
sgRNA knockout: sgATF6, 10000 nM | 53.4
sgRNA knockout: sgATG7, 10 nM | 99.6
sgRNA knockout: sgATG7, 100 nM | 94.3
sgRNA knockout: sgATG7, 1000 nM | 90.9
sgRNA knockout: sgATG7, 10000 nM | 62.1
sgRNA knockout: sgERN1, 10 nM | 90.9
sgRNA knockout: sgERN1, 100 nM | 95.2
sgRNA knockout: sgERN1, 1000 nM | 90.3
sgRNA knockout: sgERN1, 10000 nM | 55.43
sgRNA knockout: sgHSF1, 10 nM | 96.3
sgRNA knockout: sgHSF1, 100 nM | 111
sgRNA knockout: sgHSF1, 1000 nM | 93.1
sgRNA knockout: sgHSF1, 10000 nM | 51.9
sgRNA knockout: sgHSF2, 10 nM | 89.9
sgRNA knockout: sgHSF2, 100 nM | 92.1
sgRNA knockout: sgHSF2, 1000 nM | 83.8
sgRNA knockout: sgHSF2, 10000 nM | 48.3
sgRNA knockout: sgKEAP1, 10 nM | 95.3
sgRNA knockout: sgKEAP1, 100 nM | 102
sgRNA knockout: sgKEAP1, 1000 nM | 97.9
sgRNA knockout: sgKEAP1, 10000 nM | 69.6
sgRNA knockout: sgNFE2L2, 10 nM | 92.4
sgRNA knockout: sgNFE2L2, 100 nM | 106
sgRNA knockout: sgNFE2L2, 1000 nM | 79.7
sgRNA knockout: sgNFE2L2, 10000 nM | 50.47
sgRNA knockout: sgSLC35F2, 10 nM | 88.6
sgRNA knockout: sgSLC35F2, 100 nM | 90.4
sgRNA knockout: sgSLC35F2, 1000 nM | 89.4
sgRNA knockout: sgSLC35F2, 10000 nM | 52
sgRNA knockout: sgXBP1, 10 nM | 96.2
sgRNA knockout: sgXBP1, 100 nM | 90.9
sgRNA knockout: sgXBP1, 1000 nM | 88.4
sgRNA knockout: sgXBP1, 10000 nM | 59.7

O=C(Cc1ccc(-c2ccc(OCCN3CCOCC3)cc2)cn1)NCc1ccccc1 [KX2391]
Details | relative cell number
sgRNA knockout: sgATF3, 10 nM | 131
sgRNA knockout: sgATF3, 100 nM | 41.4
sgRNA knockout: sgATF3, 1000 nM | 25.6
sgRNA knockout: sgATF3, 10000 nM | 32.6
sgRNA knockout: sgATF4, 10 nM | 126
sgRNA knockout: sgATF4, 100 nM | 34.8
sgRNA knockout: sgATF4, 1000 nM | 30.9
sgRNA knockout: sgATF4, 10000 nM | 37.76
sgRNA knockout: sgATF6, 10 nM | 109
sgRNA knockout: sgATF6, 100 nM | 28.1
sgRNA knockout: sgATF6, 1000 nM | 34.6
sgRNA knockout: sgATF6, 10000 nM | 30.1
sgRNA knockout: sgATG7, 10 nM | 122
sgRNA knockout: sgATG7, 100 nM | 26.7
sgRNA knockout: sgATG7, 1000 nM | 34
sgRNA knockout: sgATG7, 10000 nM | 36.4
sgRNA knockout: sgERN1, 10 nM | 127
sgRNA knockout: sgERN1, 100 nM | 39.03
sgRNA knockout: sgERN1, 1000 nM | 34.2
sgRNA knockout: sgERN1, 10000 nM | 37.3
sgRNA knockout: sgHSF1, 10 nM | 119
sgRNA knockout: sgHSF1, 100 nM | 35.9
sgRNA knockout: sgHSF1, 1000 nM | 29.5
sgRNA knockout: sgHSF1, 10000 nM | 35.1
sgRNA knockout: sgHSF2, 10 nM | 118
sgRNA knockout: sgHSF2, 100 nM | 34.7
sgRNA knockout: sgHSF2, 1000 nM | 42.5
sgRNA knockout: sgHSF2, 10000 nM | 37.6
sgRNA knockout: sgKEAP1, 10 nM | 124
sgRNA knockout: sgKEAP1, 100 nM | 37.9
sgRNA knockout: sgKEAP1, 1000 nM | 29.8
sgRNA knockout: sgKEAP1, 10000 nM | 36.2
sgRNA knockout: sgNFE2L2, 10 nM | 123
sgRNA knockout: sgNFE2L2, 100 nM | 32.9
sgRNA knockout: sgNFE2L2, 1000 nM | 42.1
sgRNA knockout: sgNFE2L2, 10000 nM | 24.9
sgRNA knockout: sgSLC35F2, 10 nM | 117
sgRNA knockout: sgSLC35F2, 100 nM | 41
sgRNA knockout: sgSLC35F2, 1000 nM | 33.6
sgRNA knockout: sgSLC35F2, 10000 nM | 42.5
sgRNA knockout: sgXBP1, 10 nM | 137
sgRNA knockout: sgXBP1, 100 nM | 44.1
sgRNA knockout: sgXBP1, 1000 nM | 32.8
sgRNA knockout: sgXBP1, 10000 nM | 37.52

C=C1C[C@@H]2[C@H](CC[C@]3(C)C(=O)CC[C@@H]23)[C@@]2(C)C=CC(=O)C=C12 [Exemestane]
Details | relative cell number
sgRNA knockout: sgATF3, 10 nM | 95.6
sgRNA knockout: sgATF3, 100 nM | 88.25
sgRNA knockout: sgATF3, 1000 nM | 115
sgRNA knockout: sgATF3, 10000 nM | 96
sgRNA knockout: sgATF4, 10 nM | 111
sgRNA knockout: sgATF4, 100 nM | 99.6
sgRNA knockout: sgATF4, 1000 nM | 108
sgRNA knockout: sgATF4, 10000 nM | 108
sgRNA knockout: sgATF6, 10 nM | 94
sgRNA knockout: sgATF6, 100 nM | 82.9
sgRNA knockout: sgATF6, 1000 nM | 84.3
sgRNA knockout: sgATF6, 10000 nM | 103
sgRNA knockout: sgATG7, 10 nM | 105
sgRNA knockout: sgATG7, 100 nM | 87.1
sgRNA knockout: sgATG7, 1000 nM | 100
sgRNA knockout: sgATG7, 10000 nM | 105
sgRNA knockout: sgERN1, 10 nM | 103
sgRNA knockout: sgERN1, 100 nM | 84.3
sgRNA knockout: sgERN1, 1000 nM | 105
sgRNA knockout: sgERN1, 10000 nM | 109
sgRNA knockout: sgHSF1, 10 nM | 107
sgRNA knockout: sgHSF1, 100 nM | 72.9
sgRNA knockout: sgHSF1, 1000 nM | 126
sgRNA knockout: sgHSF1, 10000 nM | 102
sgRNA knockout: sgHSF2, 10 nM | 96.5
sgRNA knockout: sgHSF2, 100 nM | 89.4
sgRNA knockout: sgHSF2, 1000 nM | 109
sgRNA knockout: sgHSF2, 10000 nM | 109
sgRNA knockout: sgKEAP1, 10 nM | 103
sgRNA knockout: sgKEAP1, 100 nM | 87.6
sgRNA knockout: sgKEAP1, 1000 nM | 102
sgRNA knockout: sgKEAP1, 10000 nM | 95.09
sgRNA knockout: sgNFE2L2, 10 nM | 116
sgRNA knockout: sgNFE2L2, 100 nM | 83.9
sgRNA knockout: sgNFE2L2, 1000 nM | 123
sgRNA knockout: sgNFE2L2, 10000 nM | 102
sgRNA knockout: sgSLC35F2, 10 nM | 93
sgRNA knockout: sgSLC35F2, 100 nM | 89.8
sgRNA knockout: sgSLC35F2, 1000 nM | 91.6
sgRNA knockout: sgSLC35F2, 10000 nM | 96.4
sgRNA knockout: sgXBP1, 10 nM | 115
sgRNA knockout: sgXBP1, 100 nM | 89.9
sgRNA knockout: sgXBP1, 1000 nM | 113
sgRNA knockout: sgXBP1, 10000 nM | 119
